Three sequences from patent US20200270310 can be followed below.

The target of series [1] is MAFG (MAFG-Myc) (Homo sapiens) (UniProt O15525). In words: ELONA. Conditions: protein in a lysate after overexpression; label: 5' digoxigenin; single-stranded DNA.
Series [2] deals with MAFG (MAFG-Myc or endogenous in cells) (Homo sapiens) (UniProt O15525). Kind of series: activity in cells. The settings on record: 25 nM transfected in H23R, CDDP resistance index 2.63 to 2.0; H1299 CDDP IC50 10 to 4.5 ug/ml; ROS increased; nuclear staining of cells by aptacytochemistry; protein in cells; single-stranded DNA.

For at least one entry, the source does not settle the construct or the ends of the probe. For some of these results: At least one result comes from cells or an extract, where the contact may be indirect.

With “GCGGATGAAGACTGGTGTCGATGCATGTGTAGTGCATTTCGAGCCGTTCTATTGGTGTGCCCTAAATACGAGCAAC [apMAFG6F]”, the binding result in series [1] is reported as “binds”. The same sequence came in with a functional effect of the aptamer (resistance index) in series [2] of 2.

As for “GCGGATGAAGACTGGTGTCGCGAACCGGGTTACTTTTGTCGCGGGTCGTCGGATCTGTGCCCTAAATACGAGCAAC [apMAFG11F]”, the binding result in series [1] is recorded as “binds”. As for “GCGGATGAAGACTGGTGTGCTGTGCTTTGACGACTGTCTAGTGGGTTTTCTTCCCCCGGCCCTAAATACGAGCAAC [apMAFG3F]”, in series [1], the binding result is recorded as “binds”.
